{
  "source": "patent US8476029B2",
  "about": "“MCPP immunoassay” (priority 2009, dated 2013)",
  "key": {"[1]": {"tested_on": "Generic antibody (antibody raised from the mCPP-derived immunogen)", "type": "binding, sheep", "method": "(§1) Trazodone and mCPP were coupled by way of a crosslinker to bovine thyroglobulin (Examples 7 and 12). The resulting immunogens were administered separately to adult sheep on a monthly basis to provide target-specific polyclonal antisera. IgG was extracted from the antisera via caprylic acid/ammonium sulphate precipitation of immunoglobulin. Microtitre plates (Thermo Scientific, 95029180) were coated with antibody (125 μl) in coating buffer (10 mM Tris pH 8.5) at 37° C. for 2 hours. Antibody raised from the mCPP-derived immunogen was coated at 2.5 μg/ml and antibody raised from the trazodone-derived immunogen was coated at 0.625 μg/ml. The plates were then washed. 50 μl of sample/standard (trazodone, Sigma T6154-1 g; mCPP, Alfa-Aesar L01772; nefazodone, Sigma N5536) was added to the appropriate wells in triplicate, followed by 75 μl of conjugate from Example 13 for the generic antibody, and 75 μl of conjugate from Example 8 for the trazodone-specific antibody) and incubated at 25° C. for 1 hour. The plates were then washed and 125 μl of TMB (Randox, 4380-15) was added to each well and left at room temperature for 20 minutes in the dark. The reaction was stopped using 125 μl of 0.2M sulphuric acid. The absorbances were then read at 450 nm with an ELISA microplate reader (BIO-TEK Instruments, EL340) and the means calculated. Antibody specificity and sensitivity were then determined. […]"}, "[2]": {"tested_on": "Trazodone antibody (antibody raised from the trazodone-derived immunogen)", "type": "binding, sheep", "method": "as §1"}},
  "data": [
    {"compound": "O=c1n(CCCN2CCN(c3cccc(Cl)c3)CC2)nc2ccccn12", "note": "[Trazodone, 2-(3-[4-(3-chlorophenyl)piperazin-1-yl]propyl)-[1,2,4]triazolo[4,3-α]pyridin-3(2H)-one]", "values": [
      {"measurement": "IC50 (standard concentration which produces 50% B/B0)", "setting": "[1]", "result": 0.532, "unit": "ng/mL"},
      {"measurement": "IC50 (standard concentration which produces 50% B/B0)", "setting": "[2]", "result": 0.872, "unit": "ng/mL"}
    ]}
  ]
}
